Test results from the supplement of paper PMC10849652.
Some of the results follow.

Sequences of proteins named here, by UniProt entry; tags and fusion partners are left off. A change or cut given only in a name is not applied to a line headed by its entry.
UniProt Q9UPT8: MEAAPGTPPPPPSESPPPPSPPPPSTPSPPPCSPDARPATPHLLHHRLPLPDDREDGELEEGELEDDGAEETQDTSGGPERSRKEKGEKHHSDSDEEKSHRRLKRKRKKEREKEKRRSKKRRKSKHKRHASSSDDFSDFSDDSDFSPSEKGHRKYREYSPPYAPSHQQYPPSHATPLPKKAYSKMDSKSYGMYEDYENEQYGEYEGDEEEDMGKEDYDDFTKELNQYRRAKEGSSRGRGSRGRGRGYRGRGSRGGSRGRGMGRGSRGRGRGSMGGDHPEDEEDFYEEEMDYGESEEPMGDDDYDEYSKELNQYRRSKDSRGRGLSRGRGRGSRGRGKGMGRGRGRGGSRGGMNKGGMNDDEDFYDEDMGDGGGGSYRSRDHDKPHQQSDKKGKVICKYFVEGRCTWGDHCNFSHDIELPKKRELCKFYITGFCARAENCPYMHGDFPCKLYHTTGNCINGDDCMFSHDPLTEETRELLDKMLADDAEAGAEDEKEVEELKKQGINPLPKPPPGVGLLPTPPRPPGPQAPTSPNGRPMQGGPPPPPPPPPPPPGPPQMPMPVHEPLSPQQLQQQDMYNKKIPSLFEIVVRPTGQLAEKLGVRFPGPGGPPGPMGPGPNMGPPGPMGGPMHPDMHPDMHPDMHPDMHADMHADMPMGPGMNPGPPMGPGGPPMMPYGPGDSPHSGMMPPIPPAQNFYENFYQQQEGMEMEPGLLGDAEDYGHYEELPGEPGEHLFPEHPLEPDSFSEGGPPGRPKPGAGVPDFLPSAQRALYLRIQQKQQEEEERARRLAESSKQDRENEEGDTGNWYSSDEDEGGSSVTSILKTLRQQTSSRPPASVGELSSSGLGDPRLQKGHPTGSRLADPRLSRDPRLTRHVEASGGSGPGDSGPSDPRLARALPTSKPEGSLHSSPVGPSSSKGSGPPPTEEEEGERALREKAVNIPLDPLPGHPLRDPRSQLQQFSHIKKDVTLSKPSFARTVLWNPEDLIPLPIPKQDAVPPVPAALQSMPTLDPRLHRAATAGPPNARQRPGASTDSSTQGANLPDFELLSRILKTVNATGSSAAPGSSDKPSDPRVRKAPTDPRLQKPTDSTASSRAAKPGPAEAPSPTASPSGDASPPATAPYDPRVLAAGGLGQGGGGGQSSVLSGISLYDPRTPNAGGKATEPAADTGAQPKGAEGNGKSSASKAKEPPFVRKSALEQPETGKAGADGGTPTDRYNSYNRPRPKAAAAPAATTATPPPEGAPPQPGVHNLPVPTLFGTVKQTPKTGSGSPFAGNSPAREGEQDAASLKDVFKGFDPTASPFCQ
UniProt Q9C0B5: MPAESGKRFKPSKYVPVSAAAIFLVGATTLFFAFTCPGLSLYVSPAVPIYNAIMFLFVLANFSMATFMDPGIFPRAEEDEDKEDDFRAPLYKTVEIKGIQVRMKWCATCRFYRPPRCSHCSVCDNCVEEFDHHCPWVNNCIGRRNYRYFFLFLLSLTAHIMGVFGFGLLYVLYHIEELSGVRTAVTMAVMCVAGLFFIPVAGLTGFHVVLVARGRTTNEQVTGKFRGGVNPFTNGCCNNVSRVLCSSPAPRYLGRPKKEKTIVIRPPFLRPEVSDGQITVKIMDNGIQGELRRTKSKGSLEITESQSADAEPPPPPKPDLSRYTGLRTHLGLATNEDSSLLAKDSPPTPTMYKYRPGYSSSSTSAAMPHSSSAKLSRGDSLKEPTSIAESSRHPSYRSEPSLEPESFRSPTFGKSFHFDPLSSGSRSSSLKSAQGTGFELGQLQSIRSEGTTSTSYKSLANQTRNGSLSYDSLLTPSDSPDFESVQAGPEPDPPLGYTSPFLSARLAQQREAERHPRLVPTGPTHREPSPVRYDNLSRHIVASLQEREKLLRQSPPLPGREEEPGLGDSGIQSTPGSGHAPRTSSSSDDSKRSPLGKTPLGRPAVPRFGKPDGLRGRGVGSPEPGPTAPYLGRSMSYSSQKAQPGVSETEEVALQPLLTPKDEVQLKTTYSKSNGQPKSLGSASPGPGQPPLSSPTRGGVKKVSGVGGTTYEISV
UniProt Q8N680: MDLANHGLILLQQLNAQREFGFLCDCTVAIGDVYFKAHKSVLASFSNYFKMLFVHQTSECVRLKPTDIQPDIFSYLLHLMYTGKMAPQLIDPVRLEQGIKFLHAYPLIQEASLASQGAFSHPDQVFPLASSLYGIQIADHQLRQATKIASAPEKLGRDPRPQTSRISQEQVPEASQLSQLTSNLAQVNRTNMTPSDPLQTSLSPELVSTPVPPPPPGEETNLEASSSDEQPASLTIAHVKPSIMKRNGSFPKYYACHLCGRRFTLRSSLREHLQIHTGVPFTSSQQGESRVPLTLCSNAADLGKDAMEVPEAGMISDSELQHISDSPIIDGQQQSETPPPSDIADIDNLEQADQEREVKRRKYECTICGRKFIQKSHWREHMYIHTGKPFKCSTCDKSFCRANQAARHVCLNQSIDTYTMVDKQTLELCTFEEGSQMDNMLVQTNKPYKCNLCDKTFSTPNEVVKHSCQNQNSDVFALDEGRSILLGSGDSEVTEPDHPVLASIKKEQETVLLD
UniProt Q8WU90: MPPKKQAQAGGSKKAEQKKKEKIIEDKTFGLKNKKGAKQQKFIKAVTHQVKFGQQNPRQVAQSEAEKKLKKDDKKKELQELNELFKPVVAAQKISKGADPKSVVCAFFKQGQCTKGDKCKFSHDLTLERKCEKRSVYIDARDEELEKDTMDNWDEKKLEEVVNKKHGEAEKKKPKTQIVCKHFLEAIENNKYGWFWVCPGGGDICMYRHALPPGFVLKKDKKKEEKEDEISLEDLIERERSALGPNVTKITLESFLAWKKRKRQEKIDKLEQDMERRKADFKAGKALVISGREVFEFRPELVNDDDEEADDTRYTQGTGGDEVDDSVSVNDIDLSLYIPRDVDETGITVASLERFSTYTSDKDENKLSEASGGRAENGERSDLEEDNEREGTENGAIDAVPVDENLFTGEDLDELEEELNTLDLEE
UniProt Q8IZH2: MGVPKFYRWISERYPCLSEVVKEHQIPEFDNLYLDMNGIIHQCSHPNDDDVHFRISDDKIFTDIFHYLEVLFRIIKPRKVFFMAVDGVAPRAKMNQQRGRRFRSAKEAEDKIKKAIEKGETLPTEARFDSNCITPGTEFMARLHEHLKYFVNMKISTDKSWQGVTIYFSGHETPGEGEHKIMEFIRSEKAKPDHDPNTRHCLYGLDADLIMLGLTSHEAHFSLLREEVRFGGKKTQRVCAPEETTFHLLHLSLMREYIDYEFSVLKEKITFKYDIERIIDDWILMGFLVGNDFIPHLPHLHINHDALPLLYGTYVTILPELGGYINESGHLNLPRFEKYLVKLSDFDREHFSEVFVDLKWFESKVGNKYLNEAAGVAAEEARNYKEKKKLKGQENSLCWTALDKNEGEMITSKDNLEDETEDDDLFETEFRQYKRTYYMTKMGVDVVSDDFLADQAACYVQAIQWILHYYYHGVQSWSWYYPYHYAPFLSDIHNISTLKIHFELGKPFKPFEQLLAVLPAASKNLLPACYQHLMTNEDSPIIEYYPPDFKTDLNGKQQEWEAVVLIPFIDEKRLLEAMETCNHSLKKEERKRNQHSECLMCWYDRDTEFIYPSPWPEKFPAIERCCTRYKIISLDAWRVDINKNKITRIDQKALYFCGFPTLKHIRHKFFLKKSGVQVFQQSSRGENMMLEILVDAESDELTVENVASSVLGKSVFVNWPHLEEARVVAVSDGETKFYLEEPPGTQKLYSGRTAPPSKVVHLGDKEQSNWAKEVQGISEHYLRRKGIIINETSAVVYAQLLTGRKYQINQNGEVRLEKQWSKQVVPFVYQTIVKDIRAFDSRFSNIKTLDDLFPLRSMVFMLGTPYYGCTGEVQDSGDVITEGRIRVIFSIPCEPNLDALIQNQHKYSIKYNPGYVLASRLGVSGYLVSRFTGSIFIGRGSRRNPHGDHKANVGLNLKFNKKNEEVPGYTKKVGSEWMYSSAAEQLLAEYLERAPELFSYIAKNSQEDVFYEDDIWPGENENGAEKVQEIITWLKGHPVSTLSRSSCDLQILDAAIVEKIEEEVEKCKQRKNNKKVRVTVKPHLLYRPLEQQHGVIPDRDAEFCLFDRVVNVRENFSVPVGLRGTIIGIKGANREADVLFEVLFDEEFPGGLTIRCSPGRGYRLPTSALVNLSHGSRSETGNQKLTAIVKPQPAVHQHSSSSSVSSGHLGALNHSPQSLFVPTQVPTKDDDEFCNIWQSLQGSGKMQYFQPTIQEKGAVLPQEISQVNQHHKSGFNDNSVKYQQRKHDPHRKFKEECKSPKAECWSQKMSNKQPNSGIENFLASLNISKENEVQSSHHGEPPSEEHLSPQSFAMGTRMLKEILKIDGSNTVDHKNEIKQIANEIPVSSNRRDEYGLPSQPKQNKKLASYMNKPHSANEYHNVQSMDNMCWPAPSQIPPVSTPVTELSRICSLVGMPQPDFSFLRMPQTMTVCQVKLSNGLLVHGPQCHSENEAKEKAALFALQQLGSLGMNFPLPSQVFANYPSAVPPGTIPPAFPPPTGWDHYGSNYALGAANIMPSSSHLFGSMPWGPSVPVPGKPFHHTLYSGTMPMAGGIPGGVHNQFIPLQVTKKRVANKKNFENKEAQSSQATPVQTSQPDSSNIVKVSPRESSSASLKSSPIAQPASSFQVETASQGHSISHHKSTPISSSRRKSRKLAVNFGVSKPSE
UniProt Q7Z3T8: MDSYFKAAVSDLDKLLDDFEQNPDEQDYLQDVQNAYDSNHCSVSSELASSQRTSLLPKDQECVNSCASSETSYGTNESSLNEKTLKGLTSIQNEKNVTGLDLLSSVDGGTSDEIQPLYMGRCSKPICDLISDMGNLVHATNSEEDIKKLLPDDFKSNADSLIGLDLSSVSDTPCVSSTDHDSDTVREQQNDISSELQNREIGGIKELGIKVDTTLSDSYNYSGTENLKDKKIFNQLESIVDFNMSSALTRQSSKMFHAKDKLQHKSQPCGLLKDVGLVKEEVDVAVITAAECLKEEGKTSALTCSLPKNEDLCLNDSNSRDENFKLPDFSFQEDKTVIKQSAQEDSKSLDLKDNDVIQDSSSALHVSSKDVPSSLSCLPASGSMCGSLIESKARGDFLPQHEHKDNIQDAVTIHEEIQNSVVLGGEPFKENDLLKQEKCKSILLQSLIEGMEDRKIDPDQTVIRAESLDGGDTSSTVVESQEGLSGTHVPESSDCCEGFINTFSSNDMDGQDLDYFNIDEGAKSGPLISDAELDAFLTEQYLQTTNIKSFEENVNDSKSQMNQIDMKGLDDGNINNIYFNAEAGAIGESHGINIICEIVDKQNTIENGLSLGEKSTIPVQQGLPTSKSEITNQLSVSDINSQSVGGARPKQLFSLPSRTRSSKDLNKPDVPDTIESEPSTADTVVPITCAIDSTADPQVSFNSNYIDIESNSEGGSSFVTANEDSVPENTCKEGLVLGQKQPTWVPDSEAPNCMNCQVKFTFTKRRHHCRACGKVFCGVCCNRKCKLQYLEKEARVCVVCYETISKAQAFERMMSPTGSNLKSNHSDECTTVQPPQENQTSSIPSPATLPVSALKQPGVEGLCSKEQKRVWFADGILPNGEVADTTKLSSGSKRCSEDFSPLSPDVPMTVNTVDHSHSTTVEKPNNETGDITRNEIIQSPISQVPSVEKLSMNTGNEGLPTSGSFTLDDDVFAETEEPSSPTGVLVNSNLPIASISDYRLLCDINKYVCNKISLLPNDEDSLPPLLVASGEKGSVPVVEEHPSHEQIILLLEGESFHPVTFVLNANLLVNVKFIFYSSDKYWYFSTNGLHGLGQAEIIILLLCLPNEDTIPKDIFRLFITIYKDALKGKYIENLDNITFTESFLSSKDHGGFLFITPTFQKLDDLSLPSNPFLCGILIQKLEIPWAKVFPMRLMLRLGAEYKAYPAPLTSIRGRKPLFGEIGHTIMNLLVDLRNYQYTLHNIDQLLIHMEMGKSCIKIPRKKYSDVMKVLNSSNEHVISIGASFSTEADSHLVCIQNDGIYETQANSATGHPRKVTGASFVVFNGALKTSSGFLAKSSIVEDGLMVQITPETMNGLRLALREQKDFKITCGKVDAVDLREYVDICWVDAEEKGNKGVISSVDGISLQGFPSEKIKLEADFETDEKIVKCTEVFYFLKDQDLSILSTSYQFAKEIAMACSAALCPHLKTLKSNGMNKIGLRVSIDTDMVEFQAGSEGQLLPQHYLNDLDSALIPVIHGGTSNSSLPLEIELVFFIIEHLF

How the values were obtained:
Assay in all cases: log2 fold change, soluble protein after heating vs DMSO (PISA); higher = thermal stabilisation; K562 lysate, 10 uM; active = over 0.2 and 3.5 SD of the protein, either way, in both replicates (recomputed)
[1] = compound: C1=CC=C(C=C1)[C@H](COC2=CC3=C(C=C2)NC(=O)N3)NC(=O)C4=CC=CN(C4=O)CC5=CC(=C(C=C5)F)F
Procedure, shortened: (§1)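 Log-two fold change in thermal stability relative to solvent controls is reported from duplicates. For each sample, crude K562 extract from dounce-homogenised pellets in PBS pH 7.4 with 1 mM MgCl2, at 1 mg/mL protein, was treated with 10 μM compound for 30 min. Aliquots heated for 3 min across 48°C-58°C were pooled, brought to 0.5% NP-40 at 4°C and cleared at 21,000xg for 90 min. The supernatant was quantified by TMTpro 16plex LC-MS/MS with channel sums equalised.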

[2] = compound: CC1=C(SC2=C1C(=N[C@H](C3=NN=C(N32)C)CC(=O)N)C4=CC=C(C=C4)Cl)C
Procedure, shortened: as §1

[3] = compound: CC1=C2C(=CC=C1)N=C(N(C2=O)C3=CC=CC=C3C)CN4C=NC5=C(N=CN=C54)N
Procedure, shortened: as §1

[4] = compound: Cc1sc2c(c1C)C(c1ccc(Cl)cc1)=N[C@@H](CC(=O)OC(C)(C)C)c1nnc(C)n1-2
Procedure, shortened: as §1

[5] = compound: c1ccc([C@@H]2C[C@H]2NC2CCNCC2)cc1
Procedure, shortened: as §1

Measured: log2 fold change

ZC3H4 (UniProt Q9UPT8)
inactive: [1] 0.046 | [2] 0.017 | [3] 0.007 | [4] 0.057 | [5] 0.008

ZDHHC5 (UniProt Q9C0B5)
inactive: [1] -0.015 | [2] 0.023 | [3] -0.004 | [4] -0.032 | [5] -0.023

ZBTB2 (UniProt Q8N680)
inactive: [1] 0.117 | [2] 0.054 | [3] -0.002 | [4] 0.038 | [5] 0.021

ZCCHC8 (UniProt Q6NZY4)
inactive: [1] 0.048 | [2] 0.009 | [3] 0.005 | [4] -0.001 | [5] 0.008

ZC3H15 (UniProt Q8WU90)
inactive: [1] 0.057 | [2] 0.009 | [3] -0.007 | [4] 0.021 | [5] -0.048

YWHAZ (UniProt E7ESK7)
inactive: [1] -0.124 | [2] 0.465 | [3] -0.043 | [4] 0.127 | [5] -0.099

XRN1 (UniProt Q8IZH2)
inactive: [1] -0.022 | [2] -0.117 | [3] -0.093 | [4] 0.162 | [5] 0.089

YTHDC2 (UniProt Q9H6S0)
inactive: [1] 0.004 | [2] -0.018 | [3] -0.078 | [4] -0.002 | [5] 0.058

ZFYVE16 (UniProt Q7Z3T8)
inactive: [1] 0.01 | [2] -0.008 | [3] 0.009 | [4] -0.006 | [5] -0.008
